Positions of bridges follow the written chain, without caps; N, C: chain ends.
Columns and labels:
[1] = general procedure: Fmoc solid-phase peptide synthesis; TentaGel S RAM; Rink amide-MBHA; HATU/DIPEA; manual: HATU/NMM, HBTU/NMM, DIC/Oxyma or DIC/Oxyma/DIPEA; conditions: analytical HPLC and MS
[2] = general procedure: Fmoc solid-phase peptide synthesis; Rink amide-MBHA; HATU/DIPEA; manual: HATU/NMM, HBTU/NMM, DIC/Oxyma or DIC/Oxyma/DIPEA; conditions: whole synthesis, scale 0.5 mmol

Row | Substance | final HPLC purity ([1]; oxidative folding step) [%] | crude purity (method not given) ([1]; whole synthesis) | final HPLC purity ([1]; whole synthesis) [%] | crude mass [2] [g]
1 | Ac-ICIWQDWGAHRCT-NH2 (disulfide 2-12; SMILES CC[C@H](C)[C@H](NC(C)=O)C(=O)N[C@H]1CSSC[C@@H](C(=O)N[C@H](C(N)=O)[C@@H](C)O)NC(=O)[C@H](CCCNC(=N)N)NC(=O)[C@H](Cc2c[nH]cn2)NC(=O)[C@H](C)NC(=O)CNC(=O)[C@H](Cc2c[nH]c3ccccc23)NC(=O)[C@H](CC(=O)O)NC(=O)[C@H](CCC(N)=O)NC(=O)[C@H](Cc2c[nH]c3ccccc23)NC(=O)[C@H]([C@@H](C)CC)NC1=O) | 92 | ˜30% | – | –
2 | Ac-SEFA(1)I[1-Me-Trp]QDWGEHRhC(1)[Sar]EGE[Peg3][Peg3]-K([17-carboxy-heptadecanoyl][γGlu]G[γGlu])-NH2 | – | 23% | 90.3 | 1.4
3 | Ac-SEFC(1)1[1-Me-Trp]QDWGEHRC(1)[Sar]EGA-K([17-carboxy-heptadecanoyl][γGlu]G[Peg3][γGlu][Peg3])-NH2 | 91 | ˜41-48% | – | –

From patent US20220306695A1 (priority 2019, published 2022)
